Like-named read-outs stand apart in the source and are kept apart here. These are yes or no findings as the source states them, for the method shown. In cells and extracts the contact can be indirect. Some results given as binding are weak or reduced against the parent protein; the word gives no strength.

Assay [1] deals with T1, CGGBP1 (human) (UniProt Q9UFW8).
T1 sequence: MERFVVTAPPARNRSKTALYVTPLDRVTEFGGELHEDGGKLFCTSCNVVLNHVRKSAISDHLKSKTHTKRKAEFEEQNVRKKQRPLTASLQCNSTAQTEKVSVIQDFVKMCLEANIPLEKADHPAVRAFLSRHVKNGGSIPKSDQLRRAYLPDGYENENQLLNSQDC
Description: co-IP.

For assay [2], the target named is T1, CGGBP1 (human). Description: co-IP. The source holds these as a separate data set.
Assay [3] deals with T2, CTCF (human) (UniProt P49711).
T2 sequence: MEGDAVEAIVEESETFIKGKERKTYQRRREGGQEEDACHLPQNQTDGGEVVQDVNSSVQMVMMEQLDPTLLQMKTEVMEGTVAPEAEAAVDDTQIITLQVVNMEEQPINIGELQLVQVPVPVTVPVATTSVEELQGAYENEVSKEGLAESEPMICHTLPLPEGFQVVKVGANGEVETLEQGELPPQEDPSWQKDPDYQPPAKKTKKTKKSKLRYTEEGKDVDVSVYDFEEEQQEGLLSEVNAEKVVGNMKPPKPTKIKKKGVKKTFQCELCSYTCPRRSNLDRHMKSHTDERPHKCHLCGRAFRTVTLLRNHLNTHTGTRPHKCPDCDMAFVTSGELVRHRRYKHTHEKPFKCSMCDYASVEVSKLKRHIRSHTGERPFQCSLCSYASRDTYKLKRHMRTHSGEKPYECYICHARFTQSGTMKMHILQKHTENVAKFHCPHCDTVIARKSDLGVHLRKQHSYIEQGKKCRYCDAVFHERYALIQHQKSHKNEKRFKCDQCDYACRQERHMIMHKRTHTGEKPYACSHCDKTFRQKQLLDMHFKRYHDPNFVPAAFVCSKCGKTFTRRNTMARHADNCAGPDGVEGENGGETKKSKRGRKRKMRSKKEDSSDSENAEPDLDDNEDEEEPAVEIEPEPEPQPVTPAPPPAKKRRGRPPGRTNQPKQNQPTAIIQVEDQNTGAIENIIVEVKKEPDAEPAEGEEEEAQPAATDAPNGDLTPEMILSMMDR
Kind of assay: co-IP.

The target in assay [4] is T2, CTCF (human). Description: co-IP. The source holds these as a separate data set.
Assay [5] concerns the target T2, CTCF (human). Description: proximity ligation.
Assay [6] deals with T2, CTCF (human). Kind of assay: co-IP. This is another data set of the same source.
In assay [7] the target is T2, CTCF (human). Kind of assay: co-IP. The source holds these as a separate data set.
The target in assay [8] is T2, CTCF (human). Kind of assay: co-IP. This is another data set of the same source.

B1: CTCF (protein, UniProt P49711 1-727)
chain: MEGDAVEAIVEESETFIKGKERKTYQRRREGGQEEDACHLPQNQTDGGEVVQDVNSSVQMVMMEQLDPTLLQMKTEVMEGTVAPEAEAAVDDTQIITLQVVNMEEQPINIGELQLVQVPVPVTVPVATTSVEELQGAYENEVSKEGLAESEPMICHTLPLPEGFQVVKVGANGEVETLEQGELPPQEDPSWQKDPDYQPPAKKTKKTKKSKLRYTEEGKDVDVSVYDFEEEQQEGLLSEVNAEKVVGNMKPPKPTKIKKKGVKKTFQCELCSYTCPRRSNLDRHMKSHTDERPHKCHLCGRAFRTVTLLRNHLNTHTGTRPHKCPDCDMAFVTSGELVRHRRYKHTHEKPFKCSMCDYASVEVSKLKRHIRSHTGERPFQCSLCSYASRDTYKLKRHMRTHSGEKPYECYICHARFTQSGTMKMHILQKHTENVAKFHCPHCDTVIARKSDLGVHLRKQHSYIEQGKKCRYCDAVFHERYALIQHQKSHKNEKRFKCDQCDYACRQERHMIMHKRTHTGEKPYACSHCDKTFRQKQLLDMHFKRYHDPNFVPAAFVCSKCGKTFTRRNTMARHADNCAGPDGVEGENGGETKKSKRGRKRKMRSKKEDSSDSENAEPDLDDNEDEEEPAVEIEPEPEPQPVTPAPPPAKKRRGRPPGRTNQPKQNQPTAIIQVEDQNTGAIENIIVEVKKEPDAEPAEGEEEEAQPAATDAPNGDLTPEMILSMMDR
As to B1, the binding entry in assay [1] and in assay [2] was “binds” each time.

B2: CGGBP1 (protein, UniProt Q9UFW8 1-167)
chain: MERFVVTAPPARNRSKTALYVTPLDRVTEFGGELHEDGGKLFCTSCNVVLNHVRKSAISDHLKSKTHTKRKAEFEEQNVRKKQRPLTASLQCNSTAQTEKVSVIQDFVKMCLEANIPLEKADHPAVRAFLSRHVKNGGSIPKSDQLRRAYLPDGYENENQLLNSQDC
B2: the binding result in assay [3] is reported as “binds”; in assay [4] it was “binds weakly”; in assay [5] it was “binds”; in assay [6] it was “binds”; in assay [7], “binds weakly”; in assay [8] it was “binds”.

The values are drawn from article doi:10.1101/593137.
